One substance from article PMC12832256 can be followed below.

Amino acid sequences for entries named in this document (tags omitted).
UniProt P42684: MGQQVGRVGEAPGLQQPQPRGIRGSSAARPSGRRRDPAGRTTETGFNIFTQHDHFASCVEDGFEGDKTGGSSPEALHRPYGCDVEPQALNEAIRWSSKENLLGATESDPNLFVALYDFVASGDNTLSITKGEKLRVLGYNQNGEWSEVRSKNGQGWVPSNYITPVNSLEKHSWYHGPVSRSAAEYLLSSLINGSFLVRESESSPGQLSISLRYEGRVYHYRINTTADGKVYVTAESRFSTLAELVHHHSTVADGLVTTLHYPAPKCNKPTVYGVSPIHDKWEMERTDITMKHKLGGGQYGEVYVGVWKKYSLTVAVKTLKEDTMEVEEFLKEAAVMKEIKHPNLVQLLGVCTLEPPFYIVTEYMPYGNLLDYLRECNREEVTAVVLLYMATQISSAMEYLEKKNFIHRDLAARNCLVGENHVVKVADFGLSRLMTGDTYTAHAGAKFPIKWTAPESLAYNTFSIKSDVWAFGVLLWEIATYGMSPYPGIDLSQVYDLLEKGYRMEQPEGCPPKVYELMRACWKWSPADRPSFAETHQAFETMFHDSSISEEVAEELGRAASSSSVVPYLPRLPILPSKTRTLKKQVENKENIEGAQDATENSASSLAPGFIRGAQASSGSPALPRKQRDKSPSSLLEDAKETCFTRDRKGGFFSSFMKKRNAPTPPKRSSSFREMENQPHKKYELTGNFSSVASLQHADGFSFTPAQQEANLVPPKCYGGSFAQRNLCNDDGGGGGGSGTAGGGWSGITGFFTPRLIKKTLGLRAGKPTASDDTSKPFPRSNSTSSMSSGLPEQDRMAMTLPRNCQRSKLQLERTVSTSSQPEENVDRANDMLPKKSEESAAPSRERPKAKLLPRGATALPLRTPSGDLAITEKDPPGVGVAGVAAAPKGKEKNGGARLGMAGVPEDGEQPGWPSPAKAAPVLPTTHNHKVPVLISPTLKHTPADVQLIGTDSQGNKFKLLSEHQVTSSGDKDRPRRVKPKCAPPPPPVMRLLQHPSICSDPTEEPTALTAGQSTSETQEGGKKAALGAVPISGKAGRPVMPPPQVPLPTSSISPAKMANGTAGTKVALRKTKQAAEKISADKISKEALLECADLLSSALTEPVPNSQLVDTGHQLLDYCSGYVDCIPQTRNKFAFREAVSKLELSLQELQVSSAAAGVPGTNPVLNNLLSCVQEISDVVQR
UniProt Q14247: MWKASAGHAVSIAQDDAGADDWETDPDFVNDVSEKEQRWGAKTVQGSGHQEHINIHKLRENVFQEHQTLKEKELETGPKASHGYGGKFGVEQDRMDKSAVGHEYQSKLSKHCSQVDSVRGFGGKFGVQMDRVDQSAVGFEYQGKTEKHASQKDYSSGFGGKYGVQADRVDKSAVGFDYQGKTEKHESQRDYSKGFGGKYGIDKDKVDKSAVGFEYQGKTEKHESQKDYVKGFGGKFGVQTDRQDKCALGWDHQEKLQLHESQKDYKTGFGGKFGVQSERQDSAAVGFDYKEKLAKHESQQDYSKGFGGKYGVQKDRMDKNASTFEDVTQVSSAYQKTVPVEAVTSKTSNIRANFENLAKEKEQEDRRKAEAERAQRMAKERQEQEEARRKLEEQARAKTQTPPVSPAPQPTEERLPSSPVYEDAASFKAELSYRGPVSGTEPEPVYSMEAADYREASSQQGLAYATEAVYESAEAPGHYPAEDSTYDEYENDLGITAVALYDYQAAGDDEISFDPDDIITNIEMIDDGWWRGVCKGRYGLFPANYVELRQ

No constants are given. Whether binding was seen depends on the method and setting. In cells and extracts the contact can be indirect. Some entries that bind do so weakly or less than the wild type.

This experiment addresses ABL proto-oncogene 2, non-receptor tyrosine kinase (ABL2) (human (endogenous in SK-N-Be2 and SK-N-AS)) (UniProt P42684). The experiment in a line: co-IP; lysates of SK-N-Be2 and SK-N-AS cells with or without DANCR overexpression; antibody (anti-ABL2 or anti-cortactin, 1:50) with protein A/G dynabeads; western blot. Background: Immunoblotting shows a protein as a band on a membrane.

Consider cortactin (from UniProt Q14247 1-550), for which the binding entry is on record as “binds”.
